Measurements from the M2OR odorant receptor database.
Substitutions are numbered along the chain they refer to. The entries are a selection whose mix differs from that of the whole data set. Calls are pooled over several reports, among them a noisy single-well screen. The list shows a part of the results.

Chains of the proteins cited; added tags and fusions are not shown. Lines headed by an entry give the natural chain unless they say otherwise; changes in a name come on top. A line that says so, or that is headed by a name, gives the form on record, which may keep a tag or linker.
UniProt Q96R45: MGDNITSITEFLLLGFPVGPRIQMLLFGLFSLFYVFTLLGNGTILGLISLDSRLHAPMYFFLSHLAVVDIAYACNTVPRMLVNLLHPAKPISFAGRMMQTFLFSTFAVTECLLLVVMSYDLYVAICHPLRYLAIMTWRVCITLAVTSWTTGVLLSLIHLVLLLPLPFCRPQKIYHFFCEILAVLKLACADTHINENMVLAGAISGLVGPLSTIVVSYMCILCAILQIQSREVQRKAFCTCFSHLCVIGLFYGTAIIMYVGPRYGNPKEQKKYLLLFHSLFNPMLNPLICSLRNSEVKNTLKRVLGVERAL
OR2A2, as listed by the source: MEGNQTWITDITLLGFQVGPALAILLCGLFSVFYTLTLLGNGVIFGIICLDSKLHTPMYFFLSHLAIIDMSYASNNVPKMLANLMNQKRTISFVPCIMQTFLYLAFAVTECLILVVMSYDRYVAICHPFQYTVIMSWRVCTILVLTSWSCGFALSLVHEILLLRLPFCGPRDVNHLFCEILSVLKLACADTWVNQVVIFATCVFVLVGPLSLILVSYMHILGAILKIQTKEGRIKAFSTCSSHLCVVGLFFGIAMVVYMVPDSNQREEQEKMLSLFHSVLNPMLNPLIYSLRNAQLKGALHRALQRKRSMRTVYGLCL
OR2A7, as listed by the source: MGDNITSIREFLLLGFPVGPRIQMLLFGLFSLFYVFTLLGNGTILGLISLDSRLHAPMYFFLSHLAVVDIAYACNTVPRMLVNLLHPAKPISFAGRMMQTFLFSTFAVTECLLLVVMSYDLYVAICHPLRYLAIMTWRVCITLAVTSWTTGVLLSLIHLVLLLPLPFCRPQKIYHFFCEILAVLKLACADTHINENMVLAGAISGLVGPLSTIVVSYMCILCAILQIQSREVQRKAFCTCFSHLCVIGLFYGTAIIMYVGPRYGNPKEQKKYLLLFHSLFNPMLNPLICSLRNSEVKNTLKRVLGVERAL

Experiments:
Conditions in all cases: stereoisomer not certain
[1] = molecular target: T1, OR2A14 (Homo sapiens) (UniProt Q96R47)
T1 sequence (whole entry): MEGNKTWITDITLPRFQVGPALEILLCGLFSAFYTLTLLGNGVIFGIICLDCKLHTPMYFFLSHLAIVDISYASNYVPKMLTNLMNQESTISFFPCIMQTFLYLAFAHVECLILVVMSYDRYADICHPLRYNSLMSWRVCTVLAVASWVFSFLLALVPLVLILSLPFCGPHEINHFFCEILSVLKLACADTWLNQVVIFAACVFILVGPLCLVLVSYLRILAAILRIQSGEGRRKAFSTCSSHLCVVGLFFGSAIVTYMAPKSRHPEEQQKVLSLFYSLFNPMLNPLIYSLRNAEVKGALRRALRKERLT
In short: (§1)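 Each entry records the cell line, G-protein, co-transfected protein and tags used. Methods varied with the source, often transient luciferase assays in mammalian cell lines. A receptor–molecule pair is called responsive (active) if the original authors judged its signal statistically different from baseline and non-responsive (inactive) otherwise.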

[2] = system: T2, OR2A1
T2 sequence (whole entry): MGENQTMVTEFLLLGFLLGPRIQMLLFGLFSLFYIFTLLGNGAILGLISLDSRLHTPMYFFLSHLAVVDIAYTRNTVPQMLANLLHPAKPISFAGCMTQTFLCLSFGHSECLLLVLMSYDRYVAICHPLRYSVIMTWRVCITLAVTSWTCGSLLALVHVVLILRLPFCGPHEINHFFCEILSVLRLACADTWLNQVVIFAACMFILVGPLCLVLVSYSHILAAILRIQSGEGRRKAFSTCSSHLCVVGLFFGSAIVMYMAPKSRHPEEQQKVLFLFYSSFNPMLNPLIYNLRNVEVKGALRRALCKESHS
In short: as §1

[3] = system: T3, OR2A1; remark: listed apart in the source
T3 sequence (whole entry): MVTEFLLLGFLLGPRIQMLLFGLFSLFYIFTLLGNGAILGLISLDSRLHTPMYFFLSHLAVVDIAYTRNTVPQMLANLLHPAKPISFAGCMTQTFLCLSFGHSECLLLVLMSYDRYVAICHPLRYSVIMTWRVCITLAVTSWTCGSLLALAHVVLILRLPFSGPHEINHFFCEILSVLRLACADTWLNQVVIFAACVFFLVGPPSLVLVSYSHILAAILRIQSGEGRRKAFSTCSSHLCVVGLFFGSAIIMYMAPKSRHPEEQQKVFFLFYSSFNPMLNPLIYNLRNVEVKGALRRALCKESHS
In short: as §1

[4] = molecular target: T4, OR2A2 (Homo sapiens) (UniProt Q6IF42)
T4 sequence (whole entry): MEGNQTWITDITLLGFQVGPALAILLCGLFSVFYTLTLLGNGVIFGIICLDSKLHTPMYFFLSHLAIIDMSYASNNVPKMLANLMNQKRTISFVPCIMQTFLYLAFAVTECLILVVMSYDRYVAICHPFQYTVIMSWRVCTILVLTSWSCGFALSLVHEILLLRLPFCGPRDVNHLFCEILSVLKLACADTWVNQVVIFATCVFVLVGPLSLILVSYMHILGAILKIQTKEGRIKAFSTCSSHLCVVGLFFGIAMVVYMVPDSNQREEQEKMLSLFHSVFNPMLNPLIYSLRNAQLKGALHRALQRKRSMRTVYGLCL
In short: as §1

[5] = molecular target: T5, OR2A25 (Homo sapiens) (UniProt A4D2G3)
T5 sequence (whole entry): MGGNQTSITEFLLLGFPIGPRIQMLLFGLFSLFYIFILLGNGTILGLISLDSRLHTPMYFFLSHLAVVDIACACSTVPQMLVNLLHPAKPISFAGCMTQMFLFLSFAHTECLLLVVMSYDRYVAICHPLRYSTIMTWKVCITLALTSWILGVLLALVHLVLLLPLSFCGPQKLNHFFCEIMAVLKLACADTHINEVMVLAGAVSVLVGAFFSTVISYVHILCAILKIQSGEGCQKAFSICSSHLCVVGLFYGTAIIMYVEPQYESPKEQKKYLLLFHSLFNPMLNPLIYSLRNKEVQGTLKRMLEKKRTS
In short: as §1

[6] = system: T6, OR2A2
T6 sequence (whole entry): T4 sequence (whole entry) with F280L
In short: as §1

[7] = molecular target: T7, OR2A4 (Homo sapiens) (UniProt O95047)
T7 sequence (whole entry): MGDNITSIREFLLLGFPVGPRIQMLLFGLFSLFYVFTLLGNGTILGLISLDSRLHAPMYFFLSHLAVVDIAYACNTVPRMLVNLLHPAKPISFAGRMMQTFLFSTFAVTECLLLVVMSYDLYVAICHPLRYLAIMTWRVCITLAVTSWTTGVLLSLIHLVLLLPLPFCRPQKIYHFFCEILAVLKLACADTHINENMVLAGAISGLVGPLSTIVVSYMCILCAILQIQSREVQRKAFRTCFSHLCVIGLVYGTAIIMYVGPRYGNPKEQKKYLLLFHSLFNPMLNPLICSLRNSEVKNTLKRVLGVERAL
In short: as §1

[8] = molecular target: T8, OR2A5 (Homo sapiens) (UniProt Q96R48)
T8 sequence (whole entry): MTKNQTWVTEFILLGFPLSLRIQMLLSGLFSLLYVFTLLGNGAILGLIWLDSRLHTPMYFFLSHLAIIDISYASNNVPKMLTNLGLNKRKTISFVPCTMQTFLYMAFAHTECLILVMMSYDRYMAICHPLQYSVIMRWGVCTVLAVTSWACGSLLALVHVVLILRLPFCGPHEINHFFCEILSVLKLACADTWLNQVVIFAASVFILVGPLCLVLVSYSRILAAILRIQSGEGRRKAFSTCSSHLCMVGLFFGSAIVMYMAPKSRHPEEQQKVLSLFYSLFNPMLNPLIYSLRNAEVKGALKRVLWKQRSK
In short: as §1

[9] = molecular target: T9, OR2A7 (Homo sapiens) (UniProt Q96R45)
T9 sequence (whole entry): T7 sequence (whole entry) with R9T, R238C, V250F
In short: as §1

[10] = system: T10, OR2A7
T10 sequence (whole entry): T7 sequence (whole entry) with R238C, V250F
In short: as §1

SMILES	odorant receptor agonist call [1]	odorant receptor agonist call [2]	odorant receptor agonist call [3]	odorant receptor agonist call [4]	odorant receptor agonist call [5]	odorant receptor agonist call [6]	odorant receptor agonist call [7]	odorant receptor agonist call [8]	odorant receptor agonist call [9]	odorant receptor agonist call [10]
CC12C=CCC1C1CCC3CC(=O)CCC3(C)C1CC2 (centres undefined)	inactive	inactive	inactive	inactive	inactive	inactive	inactive	inactive	inactive	inactive
C=CCc1ccc(OC)c(OC)c1	inactive	inactive	inactive	inactive	inactive	inactive	inactive	inactive	inactive	inactive
CC(C)CCC(=O)O	inactive	inactive	inactive	inactive	inactive	inactive	inactive	inactive	inactive	inactive
CC12CCC(CC1)C(C)(C)O2	inactive	inactive	inactive	inactive	inactive	inactive	inactive	inactive	inactive	inactive
CCCCCCCC=CC=O	inactive	inactive	inactive	active	inactive	inactive	active	inactive	inactive	inactive
CC(C)=CCCC(C)=CC=O	inactive	inactive	inactive	inactive	inactive	inactive	inactive	inactive	inactive	inactive
CCCCCCCCC=O	–	–	–	–	–	–	–	–	inactive	–
C=C(C)C1CC=C(C)C(=O)C1 (centres undefined)	–	–	–	–	–	–	–	–	inactive	–
CC(=O)c1ccccc1	inactive	active	–	inactive	inactive	–	inactive	inactive	–	inactive
CC(C)C=O	active	inactive	inactive	inactive	inactive	inactive	inactive	inactive	inactive	inactive
CC1=NC(C)SC1C (centres undefined)	inactive	inactive	–	inactive	inactive	–	inactive	inactive	–	inactive
CCCCCCCCCCC=O	inactive	inactive	inactive	inactive	inactive	inactive	inactive	inactive	inactive	inactive
O=C1CCCCC1	inactive	inactive	–	inactive	inactive	–	inactive	inactive	–	inactive
c1ccc(Oc2ccccc2)cc1	inactive	inactive	inactive	inactive	inactive	inactive	inactive	inactive	inactive	inactive
CCCCO	inactive	inactive	inactive	inactive	inactive	inactive	inactive	inactive	inactive	inactive
CCCCCCCOC(C)=O	inactive	inactive	inactive	inactive	inactive	inactive	inactive	inactive	inactive	inactive
CC(C)(O)CCCC1=CCC(C=O)CC1 (centres undefined)	–	–	inactive	–	–	–	–	–	inactive	–
CCCCCC(=O)O	inactive	inactive	inactive	inactive	inactive	inactive	inactive	inactive	inactive	inactive
CCCCCC(C)=O	inactive	inactive	–	inactive	inactive	–	inactive	inactive	–	inactive
COC(=O)c1ccccc1O	inactive	inactive	inactive	inactive	inactive	inactive	inactive	inactive	inactive	inactive
CCCCCOC(C)=O	active	active	inactive	inactive	inactive	–	inactive	inactive	–	inactive
CCC1(O)C2(C)CCC(C2)C1(C)C (centres undefined)	inactive	inactive	inactive	inactive	inactive	inactive	inactive	inactive	inactive	inactive
COc1cc(C=O)ccc1O	inactive	inactive	inactive	inactive	inactive	inactive	inactive	inactive	inactive	inactive
COC(=O)c1ccccc1	inactive	active	–	inactive	inactive	–	inactive	inactive	–	inactive
CC(=O)C(C)=O	inactive	inactive	inactive	inactive	inactive	inactive	inactive	inactive	inactive	inactive
C=C(C)C1CCC2=CC(=O)CC(C)C2(C)C1 (centres undefined)	–	–	inactive	–	–	–	–	–	–	–
C=CCSCC=C	inactive	inactive	inactive	inactive	inactive	inactive	inactive	inactive	inactive	inactive
CC12C=CCC1C1CCC3=CC(=O)CCC3(C)C1CC2 (centres undefined)	active	inactive	inactive	inactive	inactive	inactive	inactive	inactive	inactive	inactive
C=CCc1ccc(O)c(OC)c1	–	–	–	–	–	–	–	–	inactive	–
CCCCCCCCOC(C)=O	inactive	inactive	inactive	inactive	inactive	inactive	inactive	inactive	inactive	inactive

Look-ups from the list:
`CC12C=CCC1C1CCC3=CC(=O)CCC3(C)C1CC2` (centres undefined) – odorant receptor agonist call [10]: inactive
`CC(C)=CCCC(C)=CC=O` – odorant receptor agonist call [8]: inactive
